Drawing on PubChem BioAssay AID328 (DTP/NCI, 2004), this text covers T/C and survivor count for 13 compounds.

The subject of this assay is BDF1 mice, P388 leukemia ip, median survival T/C. Put plainly: NCI In Vivo Anticancer Drug Screen. Data for tumor model P388 Leukemia (intraperitoneal) in B6D2F1 (BDF1) mice. Conditions: T/C endpoint: median survival time, higher T/C = longer survival. Summed up:
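Each value expresses how treatment altered survival: treated-mouse outcome over vehicle-mouse outcome, both groups bearing the transplanted tumour.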

Where [1] appears, read: dose: 200.0 mg/kg/injection, schedule: Q01DX009 (ip), vehicle: saline with Tween-80.

The list is a part of this screen's results and no random one: it is rich in T/C values a quarter to a half above the control, in often repeated tests (any T/C) and in doses without a T/C. Other doses and runs of a compound stand elsewhere. T/C is the treated group as % of the vehicle group. Some entries give survivors of the animals treated and no T/C: the source holds a T/C of zero for them, seemingly a mark for toxic or unscored doses. Some survivor counts are full or nearly so, which does not show that the dose was tolerated: the source hardly ever lists a survival T/C far under the control, and the zero likely stands for such cases as well. Counts of survivors are from the toxicity check (mostly the fifth day) where no day follows; animals may have died later. Schedule codes are those of the source, read here as Q, the interval in days (D) or hours (H), X, the number of doses. Some doses were run more than once; the results are listed from low to high. Some schedules carry Z or #; the key to these is not given. For survival time, this PubChem deposit counts one and a half times the control or more as active, and values a quarter to a half above the control carry no call in these data; other NCI protocols may use other cut-offs. Some T/C values carry the count of animals alive at the toxicity check (mostly the fifth day); where none is given, no animal had died by that day.

As for `C=C(C)C12CC(COC(=O)c3ccccc3)C34OC5(OC1C3C1OC1(CO)C(O)C1(O)C(OC(=O)c3ccccc3)C(C)C(C(C)CCCCCCC5O)C14)O2` (centres undefined), the T/C by setting is: (dose: 0.37 mg/kg/injection, schedule: Q01DX009 (ip), vehicle: saline) 136 % of control; (dose: 1.0 mg/kg/injection, schedule: Q01DX009 (ip), vehicle: saline) 136 % of control [5 of 6 alive]; (dose: 1.6 micrograms/kg/injection, schedule: Q01DX009 (ip), vehicle: gum acacia) 135 % of control; (dose: 3.1 micrograms/kg/injection, schedule: Q01DX009 (ip), vehicle: gum acacia) 135 % of control; (dose: 4.0 micrograms/kg/injection, schedule: Q01DX009 (ip), vehicle: saline + alcohol) 131 % of control; (dose: 8.0 micrograms/kg/injection, schedule: Q01DX009 (ip), vehicle: saline + alcohol) 139 % of control. For the same compound, the T/C runs as follows: (dose: 16.0 micrograms/kg/injection, schedule: Q01DX009 (ip), vehicle: saline + alcohol) 137 % of control [5 of 6 alive]; (dose: 100.0 micrograms/kg/injection, schedule: Q01DX009 (ip), vehicle: gum acacia) 131 % of control. In addition, the survivor count (dose: 6.3 micrograms/kg/injection, schedule: Q01DX009 (ip), vehicle: saline with Tween-80) was 5 of 6; the survivor count (dose: 12.5 micrograms/kg/injection, schedule: Q01DX009 (ip), vehicle: saline with Tween-80) was 1 of 6; the survivor count (dose: 25.0 micrograms/kg/injection, schedule: Q01DX009 (ip), vehicle: saline + alcohol) is 5 of 6; the survivor count (dose: 25.0 micrograms/kg/injection, schedule: Q01DX009 (ip), vehicle: saline with Tween-80) is 1 of 6; the survivor count (dose: 32.0 micrograms/kg/injection, schedule: Q01DX009 (ip), vehicle: saline + alcohol) is 6 of 6; the survivor count (dose: 50.0 micrograms/kg/injection, schedule: Q01DX009 (ip), vehicle: saline + alcohol) was 5 of 6. Further, the survivor count (dose: 50.0 micrograms/kg/injection, schedule: Q01DX009 (ip), vehicle: saline with Tween-80) was 0 of 6; the survivor count (dose: 64.0 micrograms/kg/injection, schedule: Q01DX009 (ip), vehicle: saline + alcohol) is reported as 0 of 6; the survivor count (dose: 100.0 micrograms/kg/injection, schedule: Q01DX009 (ip), vehicle: saline + alcohol) is recorded as 0 of 6; the survivor count (dose: 100.0 micrograms/kg/injection, schedule: Q01DX009 (ip), vehicle: saline with Tween-80) is 0 of 6; the survivor count (dose: 128.0 micrograms/kg/injection, schedule: Q01DX009 (ip), vehicle: saline + alcohol) is 0 of 6.
`CC(=O)O.CC(=O)O.[NH-]C(CCC(N)=O)C(=O)O.[NH-]C(CCC(N)=O)C(=O)O.[Ni+2]` (centres undefined): under “dose: 50.0 mg/kg/injection, schedule: Q01DX009 (ip), vehicle: saline”, the survivor count was 4 of 6.
As to `O=C(NP(=O)(N1CC1)N1CC1)c1cc(I)ccc1I`, the T/C is 149 % of control (dose: 8.0 mg/kg/injection, schedule: Q01DX009 (ip), vehicle: saline with Tween-80); 127 % of control (dose: 32.0 mg/kg/injection, schedule: Q01DX001 (oral), vehicle: saline); 142 % of control [9 of 10 alive] (dose: 128.0 mg/kg/injection, schedule: Q01DX001 (oral), vehicle: saline). Further, the survivor count runs as follows: (dose: 128.0 mg/kg/injection, schedule: Q01DX009 (ip), vehicle: saline with Tween-80) 9 of 10; (dose: 128.0 mg/kg/injection, schedule: Q01DX009 (ip), vehicle: saline) 6 of 6; (dose: 256.0 mg/kg/injection, schedule: Q01DX009 (ip), vehicle: saline with Tween-80) 7 of 10; (dose: 256.0 mg/kg/injection, schedule: Q01DX009 (ip), vehicle: saline) 10 of 10 and 6 of 6; (dose: 512.0 mg/kg/injection, schedule: Q01DX001 (oral), vehicle: saline) 8 of 10; (dose: 512.0 mg/kg/injection, schedule: Q01DX009 (ip), vehicle: saline with Tween-80) 6 of 10. Moreover, the survivor count (dose: 512.0 mg/kg/injection, schedule: Q01DX009 (ip), vehicle: saline) was 10 of 10 and 6 of 6.
Take `CCN(CCNc1ccc(CO)c2sc3ccccc3c(=O)c12)CC(C)(C)O`: the T/C (dose: 400.0 mg/kg/injection, schedule: Q04DX003 (ip), vehicle: Klucel (hydroxypropylcellulose) (HPC)) was 127 % of control.
As for `C=C(C)C12OC3(c4ccccc4)OC1C1C4OC4(CO)C(O)C4(O)C(=O)C(C)=CC4C1(O3)C(C)C2OC(=O)/C=C/C=C/CCCCC` (centres undefined), for the setting “dose: 50.0 micrograms/kg/injection, schedule: Q## X009 (ip), vehicle: saline + alcohol”, the T/C was 127 % of control. Besides, the survivor count (dose: 100.0 micrograms/kg/injection, schedule: Q## X009 (ip), vehicle: saline + alcohol) is listed as 5 of 6 and the survivor count (dose: 400.0 micrograms/kg/injection, schedule: Q## X009 (ip), vehicle: saline + alcohol) is given as 4 of 6.
As to `COc1cc(/C=C/[N+](=O)[O-])c(OC)cc1Br`, the survivor count (dose: 50.0 mg/kg/injection, schedule: Q01DX009 (ip), vehicle: saline with Tween-80) is recorded as 6 of 6; the survivor count (dose: 100.0 mg/kg/injection, schedule: Q01DX009 (ip), vehicle: saline with Tween-80) is reported as 2 of 6; the survivor count under setting [1] was 0 of 6.
With `O[C@H](CN1CC1)[C@@H](O)CN1CC1`, under “dose: 1000.0 micrograms/kg/injection, schedule: Q01DX010 (ip), vehicle: saline”, the survivor count is on record as 6 of 6.
In the case of `S=c1cc(-c2cccs2)ss1`, for the setting “dose: 25.0 mg/kg/injection, schedule: Q01DX009 (ip), vehicle: saline”, the T/C is 142 % of control.
`CCc1ccc(C2=C(O)C(=O)C(c3ccccc3)=C(O)C2=O)cc1`: the T/C runs as follows: (dose: 25.0 mg/kg/injection, schedule: Q01DX010 (ip), vehicle: saline) 127 % of control; (dose: 75.0 mg/kg/injection, schedule: Q01DX010 (ip), vehicle: acetone) 145 % of control. The survivor count was 2 of 6 (dose: 115.0 mg/kg/injection, schedule: Q01DX010 (ip), vehicle: acetone) and 0 of 6 (dose: 170.0 mg/kg/injection, schedule: Q01DX010 (ip), vehicle: acetone).
Take `CS(=O)(=O)Nc1ccccc1[N+](=O)[O-]`: the survivor count under setting [1] is 3 of 6 and the survivor count (dose: 400.0 mg/kg/injection, schedule: Q01DX009 (ip), vehicle: saline with Tween-80) was 0 of 6.
For `CC12CCC3(CC1CCC(OC(=O)c1ccccc1)C2)OCCO3` (centres undefined), the T/C (dose: 100.0 mg/kg/injection, schedule: Q01DX009 (ip), vehicle: other) is 136 % of control and the T/C (dose: 100.0 mg/kg/injection, schedule: Q04DX003 (ip), vehicle: other) is 145 % of control.
As to `CSC1CCCC(=O)C1` (centres undefined), the survivor count (dose: 50.0 mg/kg/injection, schedule: Q01DX009 (ip), vehicle: Klucel (hydroxypropylcellulose) (HPC)) is 5 of 6.
With `Cc1cccc(NC(=O)N(CCCl)N=O)c1`, the T/C is 130 % of control (dose: 0.05 mg/kg/injection, schedule: Q01DX009 (ip), vehicle: saline); 130 % of control (dose: 0.1 mg/kg/injection, schedule: Q01DX009 (ip), vehicle: saline); 141 % of control (dose: 0.2 mg/kg/injection, schedule: Q01DX009 (ip), vehicle: saline). In addition, the survivor count is given as 0 of 6 (dose: 100.0 mg/kg/injection, schedule: Q04DX003 (ip), vehicle: saline with Tween-80); 0 of 6 (dose: 200.0 mg/kg/injection, schedule: Q04DX003 (ip), vehicle: saline with Tween-80); 0 of 6 (dose: 400.0 mg/kg/injection, schedule: Q04DX003 (ip), vehicle: saline with Tween-80).
